Article doi:10.1101/2020.12.23.424112
Results are given in words; binding and its absence hold for the method and conditions named. Binding seen in cells or lysates may run through a third protein. Some entries that bind do so weakly or less than the wild type. For some assays here: Sequences can lack the tags named with a protein.

Amino acid sequences for entries named in this document (tags omitted).
UniProt P08518: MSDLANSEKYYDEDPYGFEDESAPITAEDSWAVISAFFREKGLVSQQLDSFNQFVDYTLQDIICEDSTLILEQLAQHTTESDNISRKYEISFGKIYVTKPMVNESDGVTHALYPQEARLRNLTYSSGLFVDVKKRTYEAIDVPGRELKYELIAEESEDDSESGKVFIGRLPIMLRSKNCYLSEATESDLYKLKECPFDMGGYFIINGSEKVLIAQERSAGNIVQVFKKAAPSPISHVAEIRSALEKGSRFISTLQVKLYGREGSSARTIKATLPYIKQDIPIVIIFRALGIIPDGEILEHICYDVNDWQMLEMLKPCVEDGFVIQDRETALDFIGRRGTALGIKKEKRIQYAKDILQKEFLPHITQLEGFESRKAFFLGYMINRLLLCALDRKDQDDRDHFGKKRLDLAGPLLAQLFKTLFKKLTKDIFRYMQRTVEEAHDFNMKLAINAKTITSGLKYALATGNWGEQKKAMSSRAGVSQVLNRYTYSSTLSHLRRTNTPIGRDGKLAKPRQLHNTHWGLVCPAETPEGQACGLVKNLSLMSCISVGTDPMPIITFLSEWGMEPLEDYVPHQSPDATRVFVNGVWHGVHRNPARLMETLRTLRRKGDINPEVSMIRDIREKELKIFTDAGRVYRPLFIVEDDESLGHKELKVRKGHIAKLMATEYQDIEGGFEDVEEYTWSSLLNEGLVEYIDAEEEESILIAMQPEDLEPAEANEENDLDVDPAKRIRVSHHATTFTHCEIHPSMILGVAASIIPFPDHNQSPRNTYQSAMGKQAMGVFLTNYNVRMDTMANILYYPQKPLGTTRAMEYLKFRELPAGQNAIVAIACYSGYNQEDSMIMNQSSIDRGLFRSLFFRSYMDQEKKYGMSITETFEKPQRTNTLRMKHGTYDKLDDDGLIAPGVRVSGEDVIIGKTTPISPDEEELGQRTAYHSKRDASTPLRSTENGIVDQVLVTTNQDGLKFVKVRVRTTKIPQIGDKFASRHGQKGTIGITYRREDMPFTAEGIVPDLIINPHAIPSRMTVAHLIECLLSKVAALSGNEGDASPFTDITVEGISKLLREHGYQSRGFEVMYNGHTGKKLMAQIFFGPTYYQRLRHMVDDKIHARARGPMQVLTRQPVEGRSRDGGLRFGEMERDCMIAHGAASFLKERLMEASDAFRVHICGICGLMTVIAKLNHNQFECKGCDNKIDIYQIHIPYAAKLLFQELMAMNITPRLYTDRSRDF
UniProt P16370: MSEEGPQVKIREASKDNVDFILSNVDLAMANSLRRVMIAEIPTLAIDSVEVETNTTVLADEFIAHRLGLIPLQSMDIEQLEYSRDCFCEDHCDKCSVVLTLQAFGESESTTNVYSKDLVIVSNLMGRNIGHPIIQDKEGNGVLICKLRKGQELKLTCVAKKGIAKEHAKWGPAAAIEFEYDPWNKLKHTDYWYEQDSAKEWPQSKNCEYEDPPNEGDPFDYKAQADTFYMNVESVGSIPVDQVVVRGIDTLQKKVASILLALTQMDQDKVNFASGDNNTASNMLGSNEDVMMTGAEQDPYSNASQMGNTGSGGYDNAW
UniProt P20434: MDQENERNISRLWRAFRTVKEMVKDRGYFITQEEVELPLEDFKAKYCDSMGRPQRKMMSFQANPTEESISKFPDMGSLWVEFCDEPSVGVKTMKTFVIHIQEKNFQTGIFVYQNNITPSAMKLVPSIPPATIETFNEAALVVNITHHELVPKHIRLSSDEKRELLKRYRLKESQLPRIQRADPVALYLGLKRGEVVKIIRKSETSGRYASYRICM
UniProt P20435: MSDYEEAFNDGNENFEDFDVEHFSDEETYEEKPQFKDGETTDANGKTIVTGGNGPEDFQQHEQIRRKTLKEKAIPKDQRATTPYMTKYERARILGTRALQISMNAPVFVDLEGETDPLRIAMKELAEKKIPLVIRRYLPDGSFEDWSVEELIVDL
UniProt P20436: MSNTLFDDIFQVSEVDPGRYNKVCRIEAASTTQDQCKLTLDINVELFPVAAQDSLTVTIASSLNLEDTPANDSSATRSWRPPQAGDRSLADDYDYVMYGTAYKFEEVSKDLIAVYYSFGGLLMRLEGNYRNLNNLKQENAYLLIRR

Tests used:
[1] = molecular target: TAP-tagged version of Rpb2 (S. cerevisiae) (UniProt P08518); assay: pull-down
[2] = molecular target: Rpb3 subunit of RNA pol II (S. cerevisiae) (UniProt P16370); assay: co-IP
[3] = molecular target: T1, Rpc160::Myc, tagged form of the largest subunit of RNA pol III (S. cerevisiae) (UniProt P04051); assay: co-IP
T1 sequence: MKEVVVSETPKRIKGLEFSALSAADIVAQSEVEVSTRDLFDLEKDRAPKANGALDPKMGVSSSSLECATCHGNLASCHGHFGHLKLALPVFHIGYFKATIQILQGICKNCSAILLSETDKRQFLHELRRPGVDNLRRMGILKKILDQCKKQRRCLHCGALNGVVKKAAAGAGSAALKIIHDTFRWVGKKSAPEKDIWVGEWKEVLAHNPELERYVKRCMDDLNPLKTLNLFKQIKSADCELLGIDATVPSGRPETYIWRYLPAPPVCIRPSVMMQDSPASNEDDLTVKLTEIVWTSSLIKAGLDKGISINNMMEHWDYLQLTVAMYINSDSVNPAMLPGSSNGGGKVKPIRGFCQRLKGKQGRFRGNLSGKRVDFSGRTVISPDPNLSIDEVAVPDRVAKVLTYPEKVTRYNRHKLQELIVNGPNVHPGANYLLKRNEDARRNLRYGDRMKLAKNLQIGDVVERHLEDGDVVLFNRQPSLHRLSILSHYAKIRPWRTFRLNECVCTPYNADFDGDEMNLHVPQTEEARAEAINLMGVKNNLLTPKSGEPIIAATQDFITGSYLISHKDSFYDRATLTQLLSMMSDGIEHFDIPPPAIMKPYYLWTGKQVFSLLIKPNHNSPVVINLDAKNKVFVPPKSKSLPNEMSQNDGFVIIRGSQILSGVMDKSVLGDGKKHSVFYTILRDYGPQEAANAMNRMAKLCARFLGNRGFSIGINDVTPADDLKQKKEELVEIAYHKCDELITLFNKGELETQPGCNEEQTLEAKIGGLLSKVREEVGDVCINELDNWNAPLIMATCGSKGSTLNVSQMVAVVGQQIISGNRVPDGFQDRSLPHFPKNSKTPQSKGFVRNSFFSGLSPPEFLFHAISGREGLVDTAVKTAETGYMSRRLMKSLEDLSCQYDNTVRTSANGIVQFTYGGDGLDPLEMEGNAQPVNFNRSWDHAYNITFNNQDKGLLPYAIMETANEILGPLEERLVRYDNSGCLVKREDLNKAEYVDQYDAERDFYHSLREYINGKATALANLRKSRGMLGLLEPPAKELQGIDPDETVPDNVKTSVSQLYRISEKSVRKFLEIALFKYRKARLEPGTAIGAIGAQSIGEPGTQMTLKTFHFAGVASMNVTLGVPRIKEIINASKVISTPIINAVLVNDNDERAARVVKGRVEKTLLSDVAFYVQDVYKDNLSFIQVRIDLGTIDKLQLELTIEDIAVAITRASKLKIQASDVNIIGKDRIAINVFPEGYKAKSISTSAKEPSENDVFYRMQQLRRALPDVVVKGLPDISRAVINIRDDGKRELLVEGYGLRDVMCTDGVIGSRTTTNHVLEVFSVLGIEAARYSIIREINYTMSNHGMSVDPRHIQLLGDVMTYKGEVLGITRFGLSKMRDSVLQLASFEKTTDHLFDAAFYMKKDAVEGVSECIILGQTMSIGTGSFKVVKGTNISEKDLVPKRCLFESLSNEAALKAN

Rpb3 subunit of RNA pol II (from UniProt P16370 1-318)
binding [1]: binds

Rpb5, common subunit of the three RNA polymerases (from UniProt P20434 1-215)
binding [2]: binds | binding [3]: binds

Rpb6 subunit of RNA pol II (from UniProt P20435 1-155)
binding [2]: binds

Rpb8-TAP tagged protein (from UniProt P20436 1-146)
binding [2]: binds
